Assay results reported in the supplement of paper PMC12067093, “Discovery and optimisation of a covalent ligand for TRIM25 and its application to targeted protein ubiquitination” (Chemical Science, 2025).
The other results are listed elsewhere or left out.

By UniProt entry, the sequences of proteins in these tests, tags left out. Where a name states a change or a piece, a line headed by the entry shows the natural chain unless it says otherwise.
UniProt Q8WUJ0: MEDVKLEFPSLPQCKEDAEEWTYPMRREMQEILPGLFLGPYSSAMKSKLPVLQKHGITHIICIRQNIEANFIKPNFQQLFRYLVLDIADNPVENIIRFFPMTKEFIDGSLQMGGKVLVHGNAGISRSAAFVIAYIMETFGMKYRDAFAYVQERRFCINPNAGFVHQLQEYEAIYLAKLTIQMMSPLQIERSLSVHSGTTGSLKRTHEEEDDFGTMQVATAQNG
UniProt Q9UNE7: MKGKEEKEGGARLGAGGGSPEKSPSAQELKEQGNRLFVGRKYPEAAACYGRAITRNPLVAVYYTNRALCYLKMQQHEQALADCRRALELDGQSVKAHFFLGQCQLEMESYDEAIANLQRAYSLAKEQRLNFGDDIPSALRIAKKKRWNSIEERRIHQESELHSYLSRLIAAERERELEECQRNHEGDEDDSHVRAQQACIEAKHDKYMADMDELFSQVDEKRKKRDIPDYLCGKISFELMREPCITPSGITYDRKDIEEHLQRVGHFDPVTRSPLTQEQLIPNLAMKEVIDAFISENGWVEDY
UniProt Q13033: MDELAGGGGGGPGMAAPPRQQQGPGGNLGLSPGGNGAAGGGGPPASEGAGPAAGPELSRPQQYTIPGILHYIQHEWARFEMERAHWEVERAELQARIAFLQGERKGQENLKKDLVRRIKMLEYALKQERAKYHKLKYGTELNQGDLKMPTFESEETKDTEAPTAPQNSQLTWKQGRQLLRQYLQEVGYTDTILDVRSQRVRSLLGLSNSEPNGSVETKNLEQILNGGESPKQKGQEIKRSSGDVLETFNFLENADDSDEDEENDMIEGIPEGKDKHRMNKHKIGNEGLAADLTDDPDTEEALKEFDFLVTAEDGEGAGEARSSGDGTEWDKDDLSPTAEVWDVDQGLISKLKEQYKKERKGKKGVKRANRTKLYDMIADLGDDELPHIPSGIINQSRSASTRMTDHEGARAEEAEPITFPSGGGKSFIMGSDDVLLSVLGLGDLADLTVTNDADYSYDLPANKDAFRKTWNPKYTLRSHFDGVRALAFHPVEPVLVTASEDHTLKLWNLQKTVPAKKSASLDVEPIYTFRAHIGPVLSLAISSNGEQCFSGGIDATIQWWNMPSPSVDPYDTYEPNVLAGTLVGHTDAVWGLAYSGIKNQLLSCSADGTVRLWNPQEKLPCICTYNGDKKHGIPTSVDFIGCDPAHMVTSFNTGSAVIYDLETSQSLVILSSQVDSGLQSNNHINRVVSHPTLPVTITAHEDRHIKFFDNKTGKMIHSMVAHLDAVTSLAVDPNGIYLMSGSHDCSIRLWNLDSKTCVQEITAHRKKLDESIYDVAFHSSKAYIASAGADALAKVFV
UniProt Q8NBJ7: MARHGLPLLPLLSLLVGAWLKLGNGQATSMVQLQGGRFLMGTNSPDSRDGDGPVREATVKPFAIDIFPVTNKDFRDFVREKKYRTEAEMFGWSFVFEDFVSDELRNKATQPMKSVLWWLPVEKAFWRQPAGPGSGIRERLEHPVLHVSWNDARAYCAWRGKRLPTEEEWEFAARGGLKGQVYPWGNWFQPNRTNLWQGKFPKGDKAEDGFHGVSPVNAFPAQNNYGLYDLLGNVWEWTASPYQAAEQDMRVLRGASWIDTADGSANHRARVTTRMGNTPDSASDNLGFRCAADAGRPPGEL
UniProt P40763, whole entry, looked up: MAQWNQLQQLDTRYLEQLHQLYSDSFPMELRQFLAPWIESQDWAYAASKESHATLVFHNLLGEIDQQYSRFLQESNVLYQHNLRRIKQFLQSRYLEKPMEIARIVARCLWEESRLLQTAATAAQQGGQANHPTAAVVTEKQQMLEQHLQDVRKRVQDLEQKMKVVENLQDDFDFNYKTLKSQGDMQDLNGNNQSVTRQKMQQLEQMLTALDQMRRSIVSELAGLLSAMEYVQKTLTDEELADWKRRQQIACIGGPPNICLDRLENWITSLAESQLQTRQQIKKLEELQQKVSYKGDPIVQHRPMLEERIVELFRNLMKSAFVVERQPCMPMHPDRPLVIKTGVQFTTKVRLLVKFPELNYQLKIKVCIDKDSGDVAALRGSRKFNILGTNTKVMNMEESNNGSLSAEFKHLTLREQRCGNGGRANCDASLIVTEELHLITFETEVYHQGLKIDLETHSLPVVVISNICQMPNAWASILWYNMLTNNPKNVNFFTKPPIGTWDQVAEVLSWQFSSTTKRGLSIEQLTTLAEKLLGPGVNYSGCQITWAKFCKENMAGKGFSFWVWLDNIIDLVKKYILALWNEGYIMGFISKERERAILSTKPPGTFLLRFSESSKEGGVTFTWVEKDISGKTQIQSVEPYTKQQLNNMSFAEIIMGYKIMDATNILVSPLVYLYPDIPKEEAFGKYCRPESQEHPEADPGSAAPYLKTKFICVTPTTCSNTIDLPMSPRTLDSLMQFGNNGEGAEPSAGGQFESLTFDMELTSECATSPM
UniProt Q9Y2Z0: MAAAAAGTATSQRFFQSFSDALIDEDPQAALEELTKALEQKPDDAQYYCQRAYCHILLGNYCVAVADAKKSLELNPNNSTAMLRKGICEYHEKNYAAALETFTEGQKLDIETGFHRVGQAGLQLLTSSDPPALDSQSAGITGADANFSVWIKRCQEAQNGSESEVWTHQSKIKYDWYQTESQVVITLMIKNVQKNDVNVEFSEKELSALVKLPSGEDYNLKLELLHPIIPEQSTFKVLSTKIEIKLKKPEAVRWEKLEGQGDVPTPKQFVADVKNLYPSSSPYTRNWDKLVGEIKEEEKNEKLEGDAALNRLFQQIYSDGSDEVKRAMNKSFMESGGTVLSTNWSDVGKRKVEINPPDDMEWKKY
UniProt O94804: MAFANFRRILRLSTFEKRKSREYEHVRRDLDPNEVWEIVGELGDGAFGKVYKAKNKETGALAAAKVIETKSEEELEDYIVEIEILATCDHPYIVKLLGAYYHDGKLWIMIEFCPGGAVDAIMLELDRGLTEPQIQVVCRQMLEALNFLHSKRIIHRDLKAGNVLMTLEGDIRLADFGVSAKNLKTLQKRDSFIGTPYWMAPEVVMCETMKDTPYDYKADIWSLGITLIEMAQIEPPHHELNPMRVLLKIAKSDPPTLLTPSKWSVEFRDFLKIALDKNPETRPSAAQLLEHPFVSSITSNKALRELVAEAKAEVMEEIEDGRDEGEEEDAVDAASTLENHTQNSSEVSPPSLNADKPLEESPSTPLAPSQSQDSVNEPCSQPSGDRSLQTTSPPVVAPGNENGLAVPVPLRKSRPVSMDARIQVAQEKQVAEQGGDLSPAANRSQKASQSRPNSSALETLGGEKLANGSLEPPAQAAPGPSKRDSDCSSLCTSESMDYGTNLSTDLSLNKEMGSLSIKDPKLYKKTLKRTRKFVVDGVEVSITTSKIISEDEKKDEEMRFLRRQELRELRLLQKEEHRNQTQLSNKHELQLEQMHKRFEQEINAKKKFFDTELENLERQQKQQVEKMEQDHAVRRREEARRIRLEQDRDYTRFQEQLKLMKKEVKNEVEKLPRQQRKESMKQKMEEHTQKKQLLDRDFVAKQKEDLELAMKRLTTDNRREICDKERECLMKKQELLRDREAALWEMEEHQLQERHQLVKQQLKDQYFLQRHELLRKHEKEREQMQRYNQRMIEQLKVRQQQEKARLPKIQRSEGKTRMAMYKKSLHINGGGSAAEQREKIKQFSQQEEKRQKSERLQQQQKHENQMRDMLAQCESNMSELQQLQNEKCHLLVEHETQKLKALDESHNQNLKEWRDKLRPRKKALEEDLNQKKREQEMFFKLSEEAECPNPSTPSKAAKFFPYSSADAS
UniProt Q15833: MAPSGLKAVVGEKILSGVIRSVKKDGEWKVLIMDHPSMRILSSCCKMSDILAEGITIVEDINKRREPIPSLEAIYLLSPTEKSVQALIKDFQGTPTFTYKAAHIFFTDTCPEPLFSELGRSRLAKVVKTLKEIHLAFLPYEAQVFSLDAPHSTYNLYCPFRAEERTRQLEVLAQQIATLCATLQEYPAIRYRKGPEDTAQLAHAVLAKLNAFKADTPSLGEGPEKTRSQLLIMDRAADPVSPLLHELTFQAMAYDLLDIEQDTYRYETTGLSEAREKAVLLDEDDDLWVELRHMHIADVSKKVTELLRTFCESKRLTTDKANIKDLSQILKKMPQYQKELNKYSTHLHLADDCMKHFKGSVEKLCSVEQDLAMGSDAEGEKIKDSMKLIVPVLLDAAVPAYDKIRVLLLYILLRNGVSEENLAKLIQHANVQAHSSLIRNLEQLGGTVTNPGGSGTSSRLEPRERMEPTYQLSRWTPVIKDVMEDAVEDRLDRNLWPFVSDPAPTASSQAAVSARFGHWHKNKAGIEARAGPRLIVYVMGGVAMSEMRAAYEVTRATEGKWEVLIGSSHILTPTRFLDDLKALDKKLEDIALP
UniProt Q9UH65: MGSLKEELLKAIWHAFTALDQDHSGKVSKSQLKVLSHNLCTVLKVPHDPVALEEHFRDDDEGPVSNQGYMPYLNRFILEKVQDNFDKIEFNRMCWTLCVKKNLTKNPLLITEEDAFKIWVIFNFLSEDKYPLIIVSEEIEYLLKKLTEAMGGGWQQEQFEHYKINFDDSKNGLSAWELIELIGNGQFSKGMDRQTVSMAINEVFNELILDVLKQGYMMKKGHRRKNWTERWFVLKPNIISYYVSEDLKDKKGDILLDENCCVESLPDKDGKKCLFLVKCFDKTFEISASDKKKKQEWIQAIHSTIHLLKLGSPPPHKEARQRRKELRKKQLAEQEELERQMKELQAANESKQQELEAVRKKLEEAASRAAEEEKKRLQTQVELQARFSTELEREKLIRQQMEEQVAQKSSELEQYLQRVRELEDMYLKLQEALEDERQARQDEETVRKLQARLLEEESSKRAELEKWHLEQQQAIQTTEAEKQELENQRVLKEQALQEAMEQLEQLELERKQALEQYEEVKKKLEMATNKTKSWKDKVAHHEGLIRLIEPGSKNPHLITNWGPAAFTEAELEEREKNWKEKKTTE
UniProt Q9BXP5: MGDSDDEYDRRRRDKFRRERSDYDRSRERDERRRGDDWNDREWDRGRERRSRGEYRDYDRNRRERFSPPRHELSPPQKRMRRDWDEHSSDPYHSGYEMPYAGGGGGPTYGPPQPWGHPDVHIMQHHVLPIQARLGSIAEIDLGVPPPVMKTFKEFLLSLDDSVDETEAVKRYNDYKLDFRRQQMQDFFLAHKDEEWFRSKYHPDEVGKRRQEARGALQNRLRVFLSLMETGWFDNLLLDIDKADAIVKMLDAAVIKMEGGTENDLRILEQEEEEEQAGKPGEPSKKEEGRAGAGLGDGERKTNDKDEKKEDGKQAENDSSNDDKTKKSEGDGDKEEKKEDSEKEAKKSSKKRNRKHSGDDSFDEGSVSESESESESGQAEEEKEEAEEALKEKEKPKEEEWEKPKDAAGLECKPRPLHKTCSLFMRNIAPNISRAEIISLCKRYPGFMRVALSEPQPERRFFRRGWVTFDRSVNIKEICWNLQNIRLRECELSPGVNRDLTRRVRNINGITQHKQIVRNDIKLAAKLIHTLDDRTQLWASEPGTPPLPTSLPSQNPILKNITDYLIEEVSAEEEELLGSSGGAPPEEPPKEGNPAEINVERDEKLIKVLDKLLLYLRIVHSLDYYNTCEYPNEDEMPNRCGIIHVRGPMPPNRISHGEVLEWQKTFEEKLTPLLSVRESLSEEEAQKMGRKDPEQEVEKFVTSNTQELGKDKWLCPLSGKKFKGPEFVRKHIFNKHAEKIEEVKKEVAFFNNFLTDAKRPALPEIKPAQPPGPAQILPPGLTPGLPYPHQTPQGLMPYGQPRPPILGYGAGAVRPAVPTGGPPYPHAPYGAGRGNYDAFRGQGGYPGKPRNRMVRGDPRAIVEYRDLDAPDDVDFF

Compound: Cc1cc(ccc1-c1ccccc1)C(=O)N1CCCN(CC1)C(=O)CCl [compound 10]
Assay: probe-labelled cysteine peptide fold change vs DMSO (competition) (log2 fold change); higher = less target engagement (more negative = stronger competition)
Details: THP-1, incubation time: 4 h
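Further: competitive profiling in live THP-1 cells: cysteine peptides tagged with an iodoacetamide desthiobiotin (IA-DTB) probe, intensity after compound treatment relative to DMSO-treated cells.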

“STYX_Q8WUJ0_156_FCINPNAGFVHQLQEYEAIYLAK (UniProt Q8WUJ0)” was tested, and the “probe-labelled cysteine peptide fold change” value (10 µM) was 0.0482 and the “probe-labelled cysteine peptide fold change” value (50 µM) was 0.342.
“STUB1_Q9UNE7_232_DIPDYLCGK (UniProt Q9UNE7)” was tested, and the “probe-labelled cysteine peptide fold change” value (10 µM) was 0.182 and the “probe-labelled cysteine peptide fold change” value (50 µM) was 0.00134.
With “SUPT5H_O00267_638_KLVENGGMFVCK (UniProt O00267)” the “probe-labelled cysteine peptide fold change” value (10 µM) was -0.0826 and the “probe-labelled cysteine peptide fold change” value (50 µM) was 0.0974.
With “STRN3_Q13033_604_NQLLSCSADGTVR (UniProt Q13033)” the “probe-labelled cysteine peptide fold change” value (10 µM) was 0.13 and the “probe-labelled cysteine peptide fold change” value (50 µM) was 0.0439.
For “SUMF2_Q8NBJ7_290_CAADAGRPPGEL (UniProt Q8NBJ7)”, the “probe-labelled cysteine peptide fold change” value (10 µM) was -0.371 and the “probe-labelled cysteine peptide fold change” value (50 µM) was 0.187.
In the case of “STAT3_P40763_542_LLGPGVNYSGCQITWAK (UniProt P40763)”, the “probe-labelled cysteine peptide fold change” value (10 µM) is reported as -0.111 and the “probe-labelled cysteine peptide fold change” value (50 µM) is reported as -0.0741.
“SUGT1_Q9Y2Z0_49_ALEQKPDDAQYYCQR (UniProt Q9Y2Z0)” was tested, and the “probe-labelled cysteine peptide fold change” value (10 µM) was -0.0707 and the “probe-labelled cysteine peptide fold change” value (50 µM) was -0.276.
With “STK10_O94804_947_LSEEAECPNPSTPSK (UniProt O94804)” the “probe-labelled cysteine peptide fold change” value (10 µM) was -0.0774 and the “probe-labelled cysteine peptide fold change” value (50 µM) was -0.445.
With “STXBP2_Q15833_110_AAHIFFTDTCPEPLFSELGR (UniProt Q15833)” the “probe-labelled cysteine peptide fold change” value (10 µM) was 0.0186 and the “probe-labelled cysteine peptide fold change” value (50 µM) was 0.272.
In the case of “SUGT1_Q9Y2Z0_62_AYCHILLGNYCVAVADAK (UniProt Q9Y2Z0)”, the “probe-labelled cysteine peptide fold change” value (10 µM) is reported as 0.116 and the “probe-labelled cysteine peptide fold change” value (50 µM) is reported as -0.0939.
“SUPT5H_O00267_638_LVENGGMFVCK (UniProt O00267)” was tested, and the “probe-labelled cysteine peptide fold change” value (10 µM) was -0.125 and the “probe-labelled cysteine peptide fold change” value (50 µM) was 0.306.
In the case of “SWAP70_Q9UH65_261_KGDILLDENCCVESLPDK (UniProt Q9UH65)”, the “probe-labelled cysteine peptide fold change” value (10 µM) is reported as -0.188 and the “probe-labelled cysteine peptide fold change” value (50 µM) is reported as -0.128.
In the case of “SRRT_Q9BXP5_640_CGIIHVR (UniProt Q9BXP5)”, the “probe-labelled cysteine peptide fold change” value (10 µM) is reported as 0.192 and the “probe-labelled cysteine peptide fold change” value (50 µM) is reported as 0.149.
With “STUB1_Q9UNE7_244_EPCITPSGITYDRK (UniProt Q9UNE7)” the “probe-labelled cysteine peptide fold change” value (10 µM) was 0.0387 and the “probe-labelled cysteine peptide fold change” value (50 µM) was -0.0972.
